The values that follow come from PubChem BioAssay AID488835 (Broad Institute, 2010).

Sequences of proteins named here, by UniProt entry; tags and fusion partners are left off. Residues count along the entry.
UniProt Q9H3R0, 1-420 limits assumed: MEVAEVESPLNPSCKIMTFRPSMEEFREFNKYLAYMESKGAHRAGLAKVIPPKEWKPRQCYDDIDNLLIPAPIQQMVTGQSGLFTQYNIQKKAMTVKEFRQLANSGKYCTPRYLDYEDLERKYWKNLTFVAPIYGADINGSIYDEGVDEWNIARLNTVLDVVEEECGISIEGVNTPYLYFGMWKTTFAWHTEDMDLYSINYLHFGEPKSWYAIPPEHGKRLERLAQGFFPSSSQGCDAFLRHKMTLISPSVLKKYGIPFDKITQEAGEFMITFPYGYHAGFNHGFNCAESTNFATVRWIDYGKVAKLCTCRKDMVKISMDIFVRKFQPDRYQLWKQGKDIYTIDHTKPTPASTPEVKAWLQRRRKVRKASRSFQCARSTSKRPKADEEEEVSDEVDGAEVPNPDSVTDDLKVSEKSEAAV

Out of some 1,400 compounds screened, about 140 (10%) were called active.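 Rule for the calls: active = Half-maximal inhibitory dose from the fit at or below ten times the top valid tested dose; inconclusive = Invalid fit, or flat curve showing 30 to 70% inhibition; inactive = the rest.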 This is a selection; strong and weak results do not stand in their true shares. Potency and affinity values are given separately.

For the assay, the target named is Lysine-specific demethylase 4C (Homo sapiens) (UniProt Q9H3R0). The assay is described as follows: inhibition of JMJD2C H3K9me3 demethylation – biochemical, DELFIA europium, cherry-picked samples, dose response (AID 488835).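 Note: signal is the H3K9me2 demethylation product detected by a dimethyl-specific antibody.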 Conditions: GST-JMJD2C(1-420); at 6 µM (top of the series) unless noted.
`COc1ccc(C(=O)NCc2cccnc2)cc1S(=O)(=O)N1CCOCC1`: the activity change, negative = inhibition is inactive: 4.76%.

Turning to `COc1cccc(CSc2nnc(C(F)(F)F)n2Cc2ccc(F)cc2)c1`, the activity change, negative = inhibition was inactive: -2.62%.

Regarding `O=C(COc1ccc(NC(=O)c2ccccc2)cc1)c1ccccc1`, the activity change, negative = inhibition was inactive: 2.44%.

On to `CC(C)C[C@H](NC(=O)N1CCCCCC1)C(=O)O`, for which the activity change, negative = inhibition was inactive: 5.35%.

`O=C1c2sc3nc4c(c(=O)n3c2C(=O)N1c1ccccc1)CCC4`: the activity change, negative = inhibition is inactive: 4.3%.

Turning to `O=C1NCCN1CCNS(=O)(=O)c1ccccc1[N+](=O)[O-]`, the activity change, negative = inhibition was inactive: 5.4%.

Turning to `Cc1cc(C)n(-c2nnc(C)n2/N=C/c2ccco2)n1`, the activity change, negative = inhibition is inactive: -0.704%.

As to `O=Cc1ccc(C(=O)OCC(=O)Nc2ccc(F)cc2F)cc1`, the activity change, negative = inhibition was inactive: 6.41%.

As for `O=C(CC1NC(=O)NC1=O)Nc1ccccc1` (stereo not drawn), the activity change, negative = inhibition is inactive: 0.477%.

With `CC(C)(C)NNC(=S)Nc1cccc(C(F)(F)F)c1`, the activity change, negative = inhibition is inactive: -0.508%.

With `COC(=O)c1sc(S(=O)(=O)NCc2ccccc2)c(C(=O)OC)c1C`, the activity change, negative = inhibition was inactive: 0.554%.

With `COc1ccc(C2/C(=C(/O)c3ccccc3)C(=O)C(=O)N2CCN2CCOCC2)c(OC)c1` (stereo not drawn), the activity change, negative = inhibition was inactive: 5.45%.

`CCCN1C(=O)c2ccc(C(=O)Nc3cc(C)ccc3O)cc2C1=O`: the activity change, negative = inhibition is inactive: 12.9%.

As to `O=C(NC1CCCc2ccccc21)c1ccc(Br)cc1` (stereo not drawn), the activity change, negative = inhibition was inactive: -1.06%.

In the case of `O=C(c1ccncc1)N1N=C(C2CCCCC2)CC1(O)C(F)(F)F` (stereo not drawn), the activity change, negative = inhibition was inactive: 3.04% [at 1.6 µM].

`COc1ccc(CN(Cc2nc3ccccc3c(=O)[nH]2)C(=O)NC2CCCCC2)cc1`: the activity change, negative = inhibition was inactive: -0.777%.

On to `c1ccc(-c2ccccc2OCCN2CCCC2)cc1`, for which the activity change, negative = inhibition was inactive: 1.49%.

For the compound `N=c1nc(-c2ccccc2)ccn1O`, the activity change, negative = inhibition was inactive: -3.32%.

For the compound `CCOc1ccc(CN2CCN(Cc3nc(C(C)C)cs3)CC2CCO)cc1` (stereo not drawn), the activity change, negative = inhibition was inactive: 6.09%.

Regarding `CCOC(=O)c1sc(NC(=O)CSc2nnc(-c3ccc(OC)cc3)n2CCOC)nc1C`, the activity change, negative = inhibition is inactive: -4.16%.

`CC(=O)c1c(C(C)=O)c(C)n(-c2nc(-c3cccs3)c(C)s2)c1C`: the activity change, negative = inhibition was inactive: -10.4%.

In the case of `COc1ccc(-c2nn(-c3ccccc3)cc2CNC(C)Cn2cncn2)c(F)c1` (stereo not drawn), the activity change, negative = inhibition was inactive: -4.46%.

In the case of `O=C(Nc1nnc(CCS(=O)(=O)c2ccc3ccccc3c2)s1)c1cccs1`, the activity change, negative = inhibition is inactive: 5.42%.

Regarding `O=C(c1ccc(Cn2cc([N+](=O)[O-])cn2)o1)N1CCCCCC1`, the activity change, negative = inhibition was inactive: -3.94%.

With `CC1=C(C(=O)OC(C)C)C(c2ccccc2)NC(=S)N1C` (stereo not drawn), the activity change, negative = inhibition was inactive: 2.61%.

As to `CSc1nc(N)nc2c1ncn2CC(=O)N[C@H](C)c1cccc2ccccc12`, the activity change, negative = inhibition is inactive: 5.54%.

With `O=C(CCc1ccc(S(=O)(=O)NCc2ccccc2)cc1)NCc1ccc2c(c1)OCO2`, the activity change, negative = inhibition is inactive: -1.2%.

Regarding `C[C@H]1CN(CCc2ccccc2)C(=O)[C@@H]1CC(=O)NCc1ccccc1`, the activity change, negative = inhibition was inactive: -0.438%.

For `CCOc1ccc(C(=O)Nc2nnc(C(C)C)s2)cc1OCC`, the activity change, negative = inhibition was inactive: -2.14%.

Regarding `CC(C)(C)c1ccc(S(=O)(=O)/N=C2\C=C(NS(=O)(=O)c3ccccc3)C(=O)c3ccccc32)cc1`, the activity change, negative = inhibition is inactive: -10.3%.

With `CCC(C)(C(=O)NC1CCCC1)N(Cc1cccs1)C(C)=O` (stereo not drawn), the activity change, negative = inhibition is inactive: 1.51%.

As for `Cc1[nH]n2c(=O)c3c(nc2c1-c1ccccc1)CCCC3`, the activity change, negative = inhibition is inactive: -5.83%.

Turning to `C[C@H]1CN([C@@H](C)CO)C(=O)c2cc(NS(=O)(=O)c3ccc(Cl)cc3)ccc2O[C@@H]1CN(C)CC1CCCCC1`, the activity change, negative = inhibition was inactive: 5.89%.

For the compound `COc1ccccc1/C=C/C(=O)Nc1ccc(N2CCOCC2)cc1`, the activity change, negative = inhibition is inactive: 4.57%.

Take `CC1(C)CC2(CC(C)(C)N1)OC(=O)N1CCc3ccccc3C12C` (stereo not drawn): the activity change, negative = inhibition is inactive: 3.75%.

As to `CC(C)(C)c1ccc(S(=O)(=O)NCc2ccc(C(=O)N3CCCC3)cc2)cc1`, the activity change, negative = inhibition is inactive: 9.2%.

Take `CSc1nnnn1CCn1nnnc1SC`: the activity change, negative = inhibition was inactive: -0.0116%.

Consider `O=C(O)c1ccc2c(c1)nnn2C1CCCCC1`, for which the activity change, negative = inhibition was inactive: 4.91%.

On to `COC(=O)C1CC(O)CN1C(=O)NC1CCCCC1` (stereo not drawn), for which the activity change, negative = inhibition was inactive: 1.33%.

Take `c1ccc(-c2csc(-n3cccn3)n2)cc1`: the activity change, negative = inhibition was inactive: -6.44%.

Take `Cc1cc(Cl)ccc1OCC(=O)NCCCN1CCOCC1`: the activity change, negative = inhibition was inactive: 4.5%.

With `COc1ccc(NC(=O)N(C)C[C@H]2Oc3c(NS(=O)(=O)c4cccs4)cccc3C(=O)N([C@H](C)CO)C[C@@H]2C)cc1`, the activity change, negative = inhibition is inactive: 7.31%.

On to `N#CCCCCN1c2cccc3cccc(c23)S1(=O)=O`, for which the activity change, negative = inhibition is inactive: 2.59%.

As to `COc1ccc(NC(=O)NC(C)c2ccc3c(c2)OCO3)c(OC)c1` (stereo not drawn), the activity change, negative = inhibition is inactive: -8.39%.

Regarding `COc1cccc(S(=O)(=O)Nc2cccc(C(=O)N3CCCCCC3)c2)c1`, the activity change, negative = inhibition was inactive: 6.4%.

In the case of `O=C(CN1C(=O)NC2(CCOc3ccccc32)C1=O)c1ccc[nH]1` (stereo not drawn), the activity change, negative = inhibition was inactive: -6.54%.

For the compound `O=C(O)CCC(=O)Nc1nc2nc(-c3ccccc3)cc(-c3ccccc3)n2n1`, the activity change, negative = inhibition was inactive: 0.643%.

`COc1ccc(CCC(=O)Nc2sccc2C#N)cc1`: the activity change, negative = inhibition was inactive: -2.95%.

As for `CC(C)=CCN1CCN(Cc2cn[nH]c2C2CCCCC2)CC1CCO` (stereo not drawn), the activity change, negative = inhibition was inactive: -1.15%.

Regarding `O=[N+]([O-])c1ccc(/C=[N+](\[O-])[C@@H]2CCCC[C@@H]2/[N+]([O-])=C/c2ccc([N+](=O)[O-])o2)o1`, the activity change, negative = inhibition was inactive: 2.35%.

Regarding `CC[C@]12c3[nH]c4ccccc4c3CCN1C(=O)C(CC(=O)NCCCOC)C[C@@H]2C(=O)N1CCN(C(=O)c2ccco2)CC1` (stereo partly drawn), the activity change, negative = inhibition is inactive: 0.551%.

Regarding `Cc1ccccc1-n1nc(C)c2cc(C(=O)N3CCN(S(=O)(=O)c4ccc(F)cc4)CC3)sc21`, the activity change, negative = inhibition is inactive: 6.98%.

In the case of `CC(=O)c1c(C(C)=O)c(C)n(NC(=O)c2ccncc2)c1C`, the activity change, negative = inhibition was inactive: 3.24%.

For `COc1ccc(/C=C2\Sc3ccc(C(=O)N4CCCC4)cc3N(C)C2=O)cc1OC`, the activity change, negative = inhibition was inactive: -8.78%.

As to `CCOc1ccccc1Nc1nc2ccccc2n2cnnc12`, the activity change, negative = inhibition is inactive: 0.232%.

For `O=C(COC(=O)CCC(=O)c1cccs1)Nc1ccc(S(=O)(=O)N2CCOCC2)cc1`, the activity change, negative = inhibition is inactive: 7.2%.

In the case of `COc1ccc(-c2n[nH]c(=S)n2C2CCCCC2)cc1`, the activity change, negative = inhibition was inactive: 5.73%.

As to `Cc1cc(Cl)ccc1OCC(=O)N1CCCCC1`, the activity change, negative = inhibition was inactive: 5.65%.
